A short description of the data set: general procedure: Fmoc solid-phase peptide synthesis; NovaSyn TGR R resin (Novabiochem); Oxyma/DIC. Conditions: whole synthesis; for final HPLC purity: 220 nm, scale of the general procedure 15 μmol.
Setting [1] is: scale 15 μmol, side-chain lactam ring.

On to “H-GGC*RFGTC*TVQKLAHQIYQFT-OEG(13)-DNVAPRSKISPQGY-NH2”, for which the “final HPLC purity” value was not below 95%. For the setting “scale 7.5 μmol”, this substance gave an isolated mass of 6.0 mg and an isolated yield of 20%.

With “H-GGC*RFGTC*TVQKLAHQIYQFT-OEG(12)-DNVAPRSKISPQGY-NH2”, the “final HPLC purity” value is listed as not below 95%. For the setting “scale 15 μmol”, the isolated mass is reported as 1.8 mg and the isolated yield was 3%.

“H-GGC*RFGTC*TVQKLAHQIYQFTD-OEG(16)-VAPRSKISPQGY-NH2”: the “final HPLC purity” value is recorded as not below 95%. Besides, under “scale 7.5 μmol”, the isolated mass worked out at 3.6 mg and the isolated yield was 12%.

As for “H-GGC*RFGTC*TVQKLAHQIYQFTDKDKDNVAPD+SKIK+PQGY-NH2”, the “final HPLC purity” value is reported as not below 95%. In addition, where the note is “scale 15 μmol”, the isolated mass is 3.9 mg and the isolated yield is 6%.

For the substance “H-K(ODD)-G-Dpr+^1-RFGTE+^1TVQKLAHQIYQFT-OEG(13)-DNVAPK+^2SKID+^2PQGY-NH2”, the “final HPLC purity” value is listed as not below 94%. In addition, for the setting “scale 2×15 μmol”, the isolated mass was 2.1 mg and the isolated yield is 1.2%.

Turning to “H-K(ODD)-GC*RFGTC*TVQKLAHQIYQFTDKDKDNVAPRSKISPQGY-NH2”, the “final HPLC purity” value was not below 95%. In addition, where the note is “scale 15 μmol”, the isolated mass came out at 3.8 mg and the isolated yield turned out to be 5%.

As for “H-K(ODD)-GC*RFGTC*TVQKLAHQIYQFTDKDKDNVAPK+SKID+PQGY-NH2”, the “final HPLC purity” value is reported as not below 95%. For the setting “scale 15 μmol”, the isolated mass worked out at 1.0 mg and the isolated yield is 1%.

For the substance “H-GGC*RFGTC*TVQKLAHQIYQFTDKDKDNVAPE+SKIK+PQGY-NH2”, the “final HPLC purity” value is not below 95%. For the setting “scale 15 μmol”, this substance displayed an isolated mass of 6.0 mg and an isolated yield of 9%.

Take “H-K(ODD)-G-Dpr+^1-RFGTE+^1TVQKLAHQIYQFTDKDKDNVAPK+^2SKID+^2PQGY-”: the “final HPLC purity” value is reported as not below 95%. Under “scale 2×15 μmol”, this substance displayed an isolated mass of 2.1 mg and an isolated yield of 1.2%.

For the substance “H-K(ODD)-GC*RFGTC*TVQKLAHQIYQFT-OEG(13)-DNVAPK+SKID+PQGY-NH2”, the “final HPLC purity” value was not below 95%. Besides, for the setting “scale 15 μmol”, the isolated mass stood at 1.7 mg and the isolated yield came out at 3%.

“H-GGC*RFGTC*TVQKLAHQIYQFTDKDKDNVAPK+SKIE+PQGY-NH2”: the “final HPLC purity” value is reported as not below 95%. For the setting “scale 15 μmol”, this substance had an isolated mass of 4.5 mg and an isolated yield of 7%.

With “H-GGC*RFGTC*TVQKLAHQIYQFTDKDKDNVAPK+SKID+PQGY-NH2”, the “final HPLC purity” value is not below 95%. Besides, for the setting “scale 15 μmol”, the isolated mass is 5.1 mg and the isolated yield is given as 8%.

“H-K(ODD)-G-Dpr+-RFGTE+TVQKLAHQIYQFTDKDKDNVAPRSKISPQGY-NH2”: where the note is “side-chain lactam ring”, the “final HPLC purity” value is given as not below 95%. Under setting [1], this substance had an isolated mass of 1.4 mg and an isolated yield of 1.6%.

With “H-GGC*RFGTC*TVQKLAHQIYQFT-OEG(16)-NVAPRSKISPQGY-NH2”, the “final HPLC purity” value is recorded as not below 95%. In addition, for the setting “scale 7.5 μmol”, the isolated mass is recorded as 5.4 mg and the isolated yield is on record as 18%.

With “H-GGC*RFGTC*TVQKLAHQIYQFTD-OEG(19)-APRSKISPQGY-NH2”, the “final HPLC purity” value is not below 95%. For the same substance, for the setting “scale 7.5 μmol”, the isolated mass is 0.7 mg and the isolated yield amounted to 2%.

Take “H-GGC*RFGTC*TVQKLAHQIYQFT-OEG(19)-VAPRSKISPQGY-NH2”: the “final HPLC purity” value is not below 95%. Under “scale 7.5 μmol”, this substance had an isolated mass of 6.9 mg and an isolated yield of 23%.

Consider “H-GGC*RFGTC*TVQKLAHQIYQFTD-OEG(13)-NVAPRSKISPQGY-NH2”, for which the “final HPLC purity” value is reported as not below 95%. Further, under “scale 7.5 μmol”, the isolated mass was 2.4 mg and the isolated yield is listed as 8%.

Source of the values: patent US20220387608A1 (Bayer Aktiengesellschaft, priority 2019, published 2022).
